{"source": "patent US20140000884A1", "about": "“PETROLEUM RECOVERY PROCESS AND SYSTEM” (Shell Oil Company, priority 2012, published 2014)", "assay": "Extraction of mined oil sands with solvents (cyclic contact and drain)", "note": "Values joined by “and” are separate entries in the source; they are usually repeats but may differ in a detail not shown here. Identical values can stand only once. Like-named read-outs stand apart in the source and are kept apart here."}
{"smiles": "CCOC(C)=O", "note": "[Ethyl Acetate, ethyl acetate]", "values": [{"measurement": "Weight Change (solids)", "setting": "extraction at 10° C.", "result": 11.2, "unit": "g"}, {"measurement": "Weight Change (solids)", "setting": "extraction at 30° C.", "result": 17.7, "unit": "g"}]}
{"smiles": "C1CCOC1", "note": "[Tetrahydrofuran, tetrahydrofuran]", "values": [{"measurement": "Weight Change (solids)", "setting": "extraction at 10° C.", "result": 17.7, "unit": "g"}, {"measurement": "Weight Change (solids)", "setting": "extraction at 30° C.", "result": 18.0, "unit": "g"}]}
{"smiles": "Cc1ccccc1C", "note": "[o-Xylene, o-xylene]", "values": [{"measurement": "Weight Change (solids)", "setting": "extraction at 10° C.", "result": 17.3, "unit": "g"}, {"measurement": "Weight Change (solids)", "setting": "extraction at 30° C.", "result": 19.5, "unit": "g"}]}
{"smiles": "ClCCl", "note": "[Dichloromethane, dichloromethane]", "values": [{"measurement": "Weight Change (solids)", "setting": "extraction at 10° C.", "result": 18.9, "unit": "g"}, {"measurement": "Weight Change (solids)", "setting": "extraction at 30° C.", "result": 17.7, "unit": "g"}]}
{"smiles": "CSC", "note": "[Dimethyl Sulfide, dimethyl sulfide]", "values": [{"measurement": "Weight Change (solids)", "setting": "extraction at 10° C.", "result": 16.9, "unit": "g"}, {"measurement": "Weight Change (solids)", "setting": "extraction at 30° C.", "result": 16.7, "unit": "g"}]}
{"smiles": "ClC(Cl)Cl", "note": "[Chloroform, chloroform]", "values": [{"measurement": "Weight Change (solids)", "result": "18.7 g and 19.4 g"}]}
{"smiles": "S=C=S", "note": "[Carbon Disulfide, carbon disulfide]", "values": [{"measurement": "Weight Change (solids)", "setting": "extraction at 10° C.", "result": 16.8, "unit": "g"}, {"measurement": "Weight Change (solids)", "setting": "extraction at 30° C.", "result": 16.4, "unit": "g"}]}
